Values quoted from earlier work as cited in patent publication US4255433A, “(+)-(3-Methyl-4-oxo-5N-piperidinothiazolidin-2-ylidene)acetic acid esters, method of preparation and use” (Godecke Aktiengesellschaft, priority 1979, dated 1981).

Test system: mice
Settings: male mice; literature (Meng-Loew, Diuretika, 1974); cited from earlier work

NS(=O)(=O)c1cc(C(=O)O)c(NCc2ccco2)cc1Cl [Compound E, 5-(aminosulfonyl)-4-chloro-2-[(2-furanylmethyl)amino]benzoic acid]
LD50: 4,600 mg/kg
